Article PMC10421354
No constants are given. Whether binding was seen depends on the method and setting. In cells and extracts the contact can be indirect. Some entries that bind do so weakly or less than the wild type. Tags and fused reporters may be left off the sequences shown.

T1: nVenus-NSP2 (Arabidopsis thaliana) (UniProt O49326)
T1 sequence: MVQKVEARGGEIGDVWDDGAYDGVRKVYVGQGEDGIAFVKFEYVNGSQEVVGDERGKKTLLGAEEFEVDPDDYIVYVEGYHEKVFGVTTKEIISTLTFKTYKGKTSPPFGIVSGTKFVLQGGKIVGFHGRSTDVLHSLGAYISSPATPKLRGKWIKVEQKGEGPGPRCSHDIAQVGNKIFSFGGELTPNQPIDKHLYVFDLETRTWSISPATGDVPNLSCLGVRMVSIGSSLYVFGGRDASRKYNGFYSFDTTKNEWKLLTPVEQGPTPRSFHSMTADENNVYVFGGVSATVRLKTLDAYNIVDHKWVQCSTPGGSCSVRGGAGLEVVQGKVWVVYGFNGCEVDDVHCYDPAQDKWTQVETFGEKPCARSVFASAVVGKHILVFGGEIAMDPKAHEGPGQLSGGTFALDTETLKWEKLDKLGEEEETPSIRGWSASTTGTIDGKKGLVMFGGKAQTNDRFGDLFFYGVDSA

T2: MPK3-GFP (Arabidopsis thaliana) (UniProt Q39023)
T2 sequence: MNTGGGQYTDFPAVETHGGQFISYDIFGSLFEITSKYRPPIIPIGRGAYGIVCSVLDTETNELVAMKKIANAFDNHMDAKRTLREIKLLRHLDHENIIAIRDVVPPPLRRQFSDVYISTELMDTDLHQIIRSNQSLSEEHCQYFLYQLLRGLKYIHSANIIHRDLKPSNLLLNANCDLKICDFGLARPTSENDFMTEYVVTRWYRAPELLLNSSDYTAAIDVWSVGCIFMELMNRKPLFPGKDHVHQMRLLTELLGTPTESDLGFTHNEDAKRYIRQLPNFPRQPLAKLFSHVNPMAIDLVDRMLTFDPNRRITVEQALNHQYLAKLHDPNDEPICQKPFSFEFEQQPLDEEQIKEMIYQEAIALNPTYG

B1: cCFP-MPK3 (protein, UniProt Q39023 1-370)
chain: T2 sequence
B2: NSP2-MYC (protein, UniProt O49326 1-471)
chain: T1 sequence

Experiments:
[1] = target: T1, nVenus-NSP2 (Arabidopsis thaliana); experiment: split reporter; BiFC; cCFP-MPK3 and nVenus-NSP2 co-infiltrated in N. benthamiana leaves; signal read by confocal microscopy 48-72 h after infiltration
[2] = target: T2, MPK3-GFP (Arabidopsis thaliana); experiment: co-IP; NSP2-MYC co-expressed with MPK3-GFP in N. benthamiana; protein extract incubated with anti-GFP nanobody agarose beads; detected by anti-GFP and anti-MYC blots

binding [1]	binding [2]	Binder
binds	–	B1
–	binds	B2
